Results published in patent EP1593386A1.
Results are given in words; binding and its absence hold for the method and conditions named. In cells and extracts the contact can be indirect. Some results given as binding are weak or reduced against the parent protein; the word gives no strength.

Sequences of proteins named here, by UniProt entry; tags and fusion partners are left off. Residues count along the entry.
UniProt P05556: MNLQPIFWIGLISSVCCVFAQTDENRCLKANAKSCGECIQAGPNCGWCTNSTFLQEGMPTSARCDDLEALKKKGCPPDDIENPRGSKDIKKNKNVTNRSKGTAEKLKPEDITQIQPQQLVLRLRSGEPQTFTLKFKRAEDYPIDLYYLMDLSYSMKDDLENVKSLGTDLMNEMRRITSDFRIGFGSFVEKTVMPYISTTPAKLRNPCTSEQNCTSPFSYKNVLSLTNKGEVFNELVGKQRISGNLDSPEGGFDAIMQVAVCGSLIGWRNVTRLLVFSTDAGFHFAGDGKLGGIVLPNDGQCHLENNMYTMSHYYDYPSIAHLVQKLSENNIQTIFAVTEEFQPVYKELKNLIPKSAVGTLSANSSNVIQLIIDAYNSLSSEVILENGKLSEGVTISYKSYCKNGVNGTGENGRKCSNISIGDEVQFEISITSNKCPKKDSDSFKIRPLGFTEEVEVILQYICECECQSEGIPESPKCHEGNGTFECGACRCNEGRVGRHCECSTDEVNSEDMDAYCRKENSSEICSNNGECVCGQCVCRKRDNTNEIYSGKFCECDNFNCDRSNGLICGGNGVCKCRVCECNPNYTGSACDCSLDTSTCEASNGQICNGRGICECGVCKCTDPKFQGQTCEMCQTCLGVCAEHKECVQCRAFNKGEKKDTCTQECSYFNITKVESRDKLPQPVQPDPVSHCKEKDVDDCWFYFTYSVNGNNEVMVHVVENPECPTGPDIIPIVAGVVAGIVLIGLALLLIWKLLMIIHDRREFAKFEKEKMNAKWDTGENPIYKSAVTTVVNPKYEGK
UniProt P09564, residues 26-240: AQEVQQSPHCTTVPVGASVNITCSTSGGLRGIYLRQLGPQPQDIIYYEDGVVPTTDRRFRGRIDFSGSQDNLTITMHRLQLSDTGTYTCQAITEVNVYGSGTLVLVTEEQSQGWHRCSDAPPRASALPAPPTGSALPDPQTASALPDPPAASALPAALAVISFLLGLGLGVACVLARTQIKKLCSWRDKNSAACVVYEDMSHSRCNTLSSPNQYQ

Assays:
[1] = biological target: integrin β1 on human peripheral blood T lymphocytes (human) (UniProt P05556); assay: pull-down with galectin-1 coated tosyl-activated magnetic beads on PBT, immunoblot for integrin β1
[2] = biological target: CD7 on human peripheral blood T lymphocytes (human) (UniProt P09564); assay: legend of Figure 3B: bead co-immunoprecipitation, immunoblot
[3] = biological target: integrin β1 on human peripheral blood T lymphocytes (human) (UniProt P05556); assay: as above
[4] = biological target: CD7 on human peripheral blood T lymphocytes (human) (UniProt P09564); assay: pull-down with galectin-1 coated tosyl-activated magnetic beads on PBT, immunoblot for CD7
[5] = biological target: CD7 on human peripheral blood T lymphocytes (human) (UniProt P09564); assay: summary of the bead co-immunoprecipitation
[6] = biological target: integrin β1 on human peripheral blood T lymphocytes (human) (UniProt P05556); assay: summary of the bead co-immunoprecipitation

Measured: binding

galectin-1 (from UniProt P09382 2-135) (ligand)
binds: all assays above
